Counter-ions that a name gives are not always drawn. At least one compound was matched to its structure with a doubt left.
Legend:
[1] = tested on: Calf thymus DNA; test: DNA binding by thermal melting (ΔTm); conditions: absorbance at 259 nm, heated at 18°C/h, average of at least two determinations
Procedure: DNA binding potency was determined for each of the compounds because previous work had determined that the binding of dicationic molecules to DNA is a prerequisite for their antimicrobial activity. See e.g., Tidwell, R.R., et al., Antimicrob. Agents Chemother. 37, 1713-1716 (1993); Bell, C. A., et al., Antimicrob. Agents Chemother. 35, 1099-1107 (1991). The DNA binding of the compounds was determined by the change in melting of the DNA bound to the experimental compounds. The method is well documented and is a considered a standard method for determining DNA binding strength. See Cory, M.. et al., J. Med. Chem. 25, 431-438 (1992). In brief, a UV-visible light spectrophotometer with a cuvette changer was interfaced to a microcomputer that recorded the cuvette temperature and DNA-absorbance data at 259 nm as the sample was heated at a rate of 18°C/h. Calf thymus DNA was used at an initial absorbance of 0.3A259. The midpoint of each denaturation curve was determined after graphic selection on the computer of the starting and ending absorbance temperature for each curve of each experiment. DNA or DNA bound to experimental compound was run in each experiment and the ΔTms were determined from the polynucleotide Tm for that experiment. […] The data reported in Table 1 represent the average of at least two determinations of ΔTm.

[2] = tested on: Pneumocystis carinii; test: Rat model of P. carinii pneumonia (PCP): cysts per gram of lung; type: in vivo; conditions: carbazoles tested at one half the dose of pentamidine
Procedure: The activity of the compounds against P. carinii was carried out according to an established method. See Tidwell, R. R., et al., J. Med. Chem. 33, 1252-1257 (1990); Jones, S. K., et al., Antimicrob. Agents Chemother. 34, 1026-1030 (1990); Tidwell, R.R., et al., Antimicrob. Agents Chemother. 37, 1713-1716 (1993). The induction and treatment of P. carinii pneumonia (PCP) was carried out with only minor alterations to published methods. See Frenkel, J.K. et al., Lab. Invest. 15, 1559 (1966); Hughes, W.T. et al., Antimicrob. Agents Chemother. 5, 289 (1974). […]
The left lung was weighed, ground through a No. 60 wire mesh screen, and suspended 1:10 (wt/vol) in 10 mM β-mercaptoethanol-Hanks' balanced salts solution (HBSS) without cations. […] The slides were stained with cresyl violet, and the cysts were counted by a blinded protocol. The number of cysts per gram of original lung tissue was calculated, and the groups were reported as the percentages of saline-treated controls.
Anti-P. carinii activity is measured by the reduction in the number of cysts per gram of lung tissue for treated animals as compared to untreated controls. The anti-P. carinii value for each compound is expressed as the percent of cysts in the treatment group as compared to the control group. […]

Row | Structure (SMILES) | DNA binding calf thymus ΔTm(°C) [1] [°C] | anti-P. carinii activity (in words) [2] | anti-P. carinii activity (in words) ([2]; dihydrochloride)
1 | Cn1c2ccc(C3=NCCN3)cc2c2cc(C3=NCCN3)ccc21 [Compound 4, 3,6-bis(2-imidazolinyl)-9-methylcarbazole dihydrochloride] | 24.0 | – | –
2 | c1cc2c(cc1C1=NCCN1)c1cc(C3=NCCN3)ccc1n2CC1CCCCC1 [Compound 5, 9-cyclohexylmethyl-3,6-bis(2-imidazolinyl)carbazole dihydrochloride] | 16.8 | failed to exhibit anti-P. carinii significantly more potent than the control drug, pentamidine | –
3 | c1cc2c(cc1C1=NCCN1)[nH]c1cc(C3=NCCN3)ccc12 [Compound 10, 2,7-bis(2-imidazolinyl)carbazole dihydrochloride] | 18.6 | – | –
4 | c1cc2[nH]c3ccc(C4=NCCN4)cc3c2cc1C1=NCCN1 [Compound 3, 3,6-bis(2-imidazolinyl)carbazole dihydrochloride] | 19.5 | – | over a log greater activity when compared to pentamidine
5 | CC(C)N=C(N)c1ccc2[nH]c3ccc(C(N)=NC(C)C)cc3c2c1 [Compound 2, 3,6-diisopropylamidinocarbazole dihydrochloride] | 9.6 | – | –
